We go through 42 sequences from PMC7819943, “Rice protein-binding microarrays: a tool to detect cis-acting elements near promoter regions in rice”.

This is one part of the list.

In this test the target is T1, OsSMF1 (Oryza sativa, UniProt Q6ZLB0 1-436).
T1 sequence: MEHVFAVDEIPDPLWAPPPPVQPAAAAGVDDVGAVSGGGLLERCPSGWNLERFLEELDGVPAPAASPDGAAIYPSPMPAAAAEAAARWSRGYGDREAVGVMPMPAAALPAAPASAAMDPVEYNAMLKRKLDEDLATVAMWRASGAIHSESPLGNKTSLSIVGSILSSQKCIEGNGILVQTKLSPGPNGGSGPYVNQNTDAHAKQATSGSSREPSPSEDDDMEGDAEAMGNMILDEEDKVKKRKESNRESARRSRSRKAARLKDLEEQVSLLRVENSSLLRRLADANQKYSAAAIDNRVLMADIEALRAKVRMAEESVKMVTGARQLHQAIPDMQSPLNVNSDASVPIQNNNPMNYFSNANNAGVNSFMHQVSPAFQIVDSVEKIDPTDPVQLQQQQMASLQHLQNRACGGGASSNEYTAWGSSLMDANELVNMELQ
Description: protein-binding microarray (RPBM); PBS, 2% BSA, 51.3 ng/ul salmon testes DNA, 50 uM zinc acetate, 200 nM TF, 25 C, 1 h; high values mean tight binding. The note with it: protein: recombinant; tags: N-terminal polyhistidine and DsRed monomer fusion (pET32a); chain copies: 2; label: CyDye5-dUTP incorporated in the synthesized complementary strand; 3' TTTTT single-stranded linker to array surface; dsDNA, one strand shown. In a few lines: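 Polyhistidine-tagged DsRed fusions of transcription factors, joined at the N-terminus, were expressed in E. coli BL21-CodonPlus and isolated on Ni–NTA. They were incubated at 200 nM for 1 h at 25 °C on a custom Agilent array, double-stranded and BSA-blocked, in PBS with 2% BSA, salmon testes DNA and 50 µM zinc acetate. The binding signal is per-feature fluorescence intensity (arbitrary units) read on an Axon 4000B scanner after washing.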
Turning to “GTTCCCCTTGTACCCGCTCGTCACGTTGGCGCCGCGCACGCGGAGTCACCTAGTGCAG”, the binding signal was 5570 fluorescence intensity (a.u.).
Take “GTCGGCCGATCGATCGATCATACCACGGGCCGATTCGTGGCGGAGTCACCTAGTGCAG”: the binding signal is 24500 fluorescence intensity (a.u.).
For “GGCATCGTCGACGGGAAGACGGACGCCATGAATTCCGTCACGGAGTCACCTAGTGCAG”, the binding signal is 3500 fluorescence intensity (a.u.).
Take “GGGGCGCCTTCTTCTCCACGCCGCCGCCGCGTGGGCCAGGCGGAGTCACCTAGTGCAG”: the binding signal was 3460 fluorescence intensity (a.u.).
With “CCCGTGACGTGTCGGCATCGGAGGGCCCCTCGTCGGGGTCCGGAGTCACCTAGTGCAG” the figure was 10200 fluorescence intensity (a.u.); with “ACACACGAGCAAAACTACTCCGACTGACAGCACGGGACCCCGGAGTCACCTAGTGCAG”, 3330 fluorescence intensity (a.u.).
With “TCCATTTTGGACCGCTGACGAGGACGATAGGAGCGTGAGTCGGAGTCACCTAGTGCAG” the figure was 4710 fluorescence intensity (a.u.).
With “ATCAAGTCACCTCTTGATCACAGTAAGATGTGTCACTTCCCGGAGTCACCTAGTGCAG” the figure was 4150 fluorescence intensity (a.u.); with “TAATCTGGAATTATGACAATGTAGGGCACAATAACCAAGTCGGAGTCACCTAGTGCAG”, 3510 fluorescence intensity (a.u.).
Take “ATGACTGATAATCTAAGACATGAAATAACTGAAATTCTGTCGGAGTCACCTAGTGCAG”: the binding signal was 22900 fluorescence intensity (a.u.).
With “GTGCGATCGTTCGTTGCAAGTAGCAATTCGTCAGCTCTGCCGGAGTCACCTAGTGCAG” the figure was 4480 fluorescence intensity (a.u.).
With “AGTGTTGATCGAGTCGTGGGTGTGCATGGTGTGCGTGGCGCGGAGTCACCTAGTGCAG” the figure was 3930 fluorescence intensity (a.u.); with “CCCGCAGCGTCCGGTGTCATCGATCGTGGCAGGGAAGTCCCGGAGTCACCTAGTGCAG”, 3480 fluorescence intensity (a.u.); with “TGAGATATATATTTCGTATGTATATAGAGAAATAAAGAAACGGAGTCACCTAGTGCAG”, 57100 fluorescence intensity (a.u.).
For “CCAAATCAAACGGCCACCTGTACCCTACGTGCCACTCCTCCGGAGTCACCTAGTGCAG”, the binding signal was 5030 fluorescence intensity (a.u.).
With “AAAAGAACGTGGACAAACGGGAGTAAGCACACGGCGGCGACGGAGTCACCTAGTGCAG” the figure was 3590 fluorescence intensity (a.u.); with “TCTGAATTGGGCCCTGTCGCGAAGCCTGCCACCTGAATTGCGGAGTCACCTAGTGCAG”, 3440 fluorescence intensity (a.u.).
With “CGATCTATCTTAGTTCATTCGCTGCAAATCCGACGCCTGACGGAGTCACCTAGTGCAG” the figure was 3240 fluorescence intensity (a.u.).
With “GGCAGTGGGACACGTTCGCCACTCAACCCAGCCTTCTGGTCGGAGTCACCTAGTGCAG” the figure was 3630 fluorescence intensity (a.u.).
For “TCTAGATGGAGCCTACCGATTTGCCCTTCATTTTGTAGGACGGAGTCACCTAGTGCAG”, the binding signal is 19100 fluorescence intensity (a.u.).
With “ACAAATGTTTACCGTAACACTATATTATCATATCATAAAGCGGAGTCACCTAGTGCAG” the figure was 3160 fluorescence intensity (a.u.); with “AAGAACTCATCTTACACCAATTAGAAAACACAAGAGAAACCGGAGTCACCTAGTGCAG”, 28900 fluorescence intensity (a.u.); with “TGCCACTCGACGCCTCAATTCATCCCATGCCACCGTGGCTCGGAGTCACCTAGTGCAG”, 6960 fluorescence intensity (a.u.).
As to “AACCTCAGAAATAAAGTGGAAACGTTTAATTTCCATGGTCCGGAGTCACCTAGTGCAG”, the binding signal is 18300 fluorescence intensity (a.u.).
With “TGGTTTGGTCTCCATCACAAGATCTGTGCATGATTAGCTGCGGAGTCACCTAGTGCAG” the figure was 3290 fluorescence intensity (a.u.).
For the sequence “AAGGTTTTACTGACATGACGTTGACGTAGCGGTGTTGACCCGGAGTCACCTAGTGCAG”, the binding signal was 8530 fluorescence intensity (a.u.).
With “TCCCTGTAACCGTACTGCACATCACGTCATCCATTTAAGACGGAGTCACCTAGTGCAG” the figure was 6780 fluorescence intensity (a.u.); with “TAGAGGGGCATATTCGACCATTCGTCACGTCACCAGCTAGCGGAGTCACCTAGTGCAG”, 8470 fluorescence intensity (a.u.); with “GGCGGGGTGGCTGTTGTCGACGTCGTGGTGGTCGGCGTCGCGGAGTCACCTAGTGCAG”, 3910 fluorescence intensity (a.u.).
Take “ATGGCCCATTGGGCTTTCCACGGTGGTGGAATATTCCACCCGGAGTCACCTAGTGCAG”: the binding signal was 3780 fluorescence intensity (a.u.).
With “TTACTACACGGATCGCGGTCACGTCACGTGGTCCATAGTCCGGAGTCACCTAGTGCAG” the figure was 6690 fluorescence intensity (a.u.); with “TTGGATGCTTCTTGACTCACCCACACATTTGCATCGAACCCGGAGTCACCTAGTGCAG”, 3840 fluorescence intensity (a.u.).
With “ATGATAACTTTTATGGTTTTGGCCGTCTGGGGATCGGAATCGGAGTCACCTAGTGCAG” the figure was 65500 fluorescence intensity (a.u.); with “TTCTTTCTTTCTTTCTTCTTTCCCTGTTCTGTCTTTCTTCCGGAGTCACCTAGTGCAG”, 3480 fluorescence intensity (a.u.).
With “GGGATGTCACACCGTCGAAGGCGTCCAGCTGTCAACATATCGGAGTCACCTAGTGCAG” the figure was 4720 fluorescence intensity (a.u.); with “CAACTTTGCCGGCTGCCGATGACTGCCAACAACTCGGCCGCGGAGTCACCTAGTGCAG”, 4380 fluorescence intensity (a.u.); with “TGGTGGTAGTGTGTGTTGGTGTCATAAATACTAAATAAGACGGAGTCACCTAGTGCAG”, 3460 fluorescence intensity (a.u.).
With “TGATGGGCTCGTGGACCGATGACTCAGACCACGGTCGCCCCGGAGTCACCTAGTGCAG”, the binding signal was 15400 fluorescence intensity (a.u.).
With “ACACACACAGTCACACGTACGCTAGCTCGATCGTTAGCTGCGGAGTCACCTAGTGCAG” the figure was 6070 fluorescence intensity (a.u.).
With “CATCCCCTCCCGCCACGTCCGCAACCGCAGCCACCACCACCGGAGTCACCTAGTGCAG” the figure was 10700 fluorescence intensity (a.u.).
For the sequence “AATTGCTCCTCCGGTTCGTGACGTCGCCGATGGTGGACGCCGGAGTCACCTAGTGCAG”, the binding signal is 7280 fluorescence intensity (a.u.).
With “GGAAACGGTGAATAGTGCACTGCAAATCACGCCCAAATTGCGGAGTCACCTAGTGCAG” the figure was 3160 fluorescence intensity (a.u.).
